Measured values: PubChem BioAssay AID662 (National Center for Advancing Translational Sciences (NCATS), 2007)
The list shows a part of the results. These are further read-outs of the screen, such as a control signal, another cell line or another target. No call is given for them. Most of these compounds were active or inconclusive in the main read-out, so they are no random draw. The note in brackets gives the kind of curve behind each potency; many fits are weak.

Test: Cell signaling CRE-BLA (Fsk stim)
Conditions: CHO CRE-bla reporter (cAMP response element driving beta-lactamase), forskolin EC10, beta-lactamase ratio; measured here: 460 nm blue channel
Summary of the method: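 Modulation of forskolin-driven signalling is measured in CHO cells carrying a CRE-controlled beta-lactamase reporter. Cells are stimulated with EC10 NKH 477 in the presence of titrated compound for 3 h at 37 °C, then loaded with CCF4 for 2 h at room temperature.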
With `COc1cc(COc2cc(N)c(Cl)cc2C(=O)CCC2CCN(CCNS(C)(=O)=O)CC2)cc(OC)c1` the AC50 was 7.94 µM [rising, partial curve]. With `NC1(C(=O)O)C[C@@H](C(=O)O)[C@H](C(=O)O)C1` the AC50 was 12.6 µM [falling, single point]. In the case of `CC(C)[C@H](CO)Nc1nc(Nc2ccc(C(=O)O)c(Cl)c2)c2ncn(C(C)C)c2n1`, the AC50 is reported as 31.6 µM [falling, single point]. For `Cc1ccc(-c2cc(C(F)F)nc(NCc3cccnc3)n2)cc1`, the AC50 was 0.631 µM [rising, full curve]. In the case of `N#C[C@H](Cc1ccc(O)cc1)c1ccc(O)cc1`, the AC50 is reported as 15.8 µM [falling, partial curve, poor fit]. For `Cc1c(C(=O)NC2CC2)oc2ccc(S(=O)(=O)N3CCCCCC3)cc12`, the AC50 was 10 µM [rising, partial curve]. With `COc1cc(-c2nnc(SCC(=O)c3ccc(C)cc3)o2)cc(OC)c1OC` the AC50 was 2 µM [rising, full curve]. In the case of `CCN1CCN(CCCNC(=O)C(NC(=O)C2CCC(C)CC2)C(C)C)CC1` (centres undefined), the AC50 is reported as 0.00398 µM [falling, full curve, poor fit]. For `CCC(C)NC(=O)c1cnc2n(c1=O)CCS2` (centres undefined), the AC50 was 12.6 µM [rising, single point]. In the case of `O=C(NCc1ccco1)C1CCN(C(=O)c2cc3sccc3n2Cc2ccc(F)cc2)CC1`, the AC50 is reported as 25.1 µM [rising, single point]. In the case of `COc1cccc(Cn2c(=O)c(C)nc3cnc(Nc4ccccc4)nc32)c1`, the AC50 is reported as 10 µM [rising, partial curve]. In the case of `O=C(NCc1ccncc1)c1ccc(Br)o1`, the AC50 is reported as 1 µM [falling, partial curve]. In the case of `COc1ccc(-n2c(SC3CCOC3=O)nc3ccccc32)cc1` (centres undefined), the AC50 is reported as 5.01 µM [rising, partial curve]. For `CN(Cc1ccccc1)c1ncnc2c1cnn2-c1ccccc1`, the AC50 was 5.01 µM [rising, partial curve]. For `CCOC(=O)N1CCN(C(=O)Cc2ccsc2)CC1`, the AC50 was 5.01 µM [falling, partial curve]. For `O=C(COC(=O)CCC(=O)c1cccs1)NCc1ccco1`, the AC50 was 3.16 µM [falling, partial curve]. For `O=C(CCCCn1c(=O)[nH]c2ccsc2c1=O)NCC1CCCO1` (centres undefined), the AC50 was 0.631 µM [falling, single point]. With `CC(C)(C)c1ccccc1NC(=O)c1cccnc1` the AC50 was 25.1 µM [rising, single point]. With `COc1ccccc1-c1nnc2sc(-c3cc4ccccc4o3)nn12` the AC50 was 1.58 µM [rising, full curve]. With `O=C(C1CCCCC1)N1CCC(c2nc3c(nnn3Cc3ccccc3Cl)c(=O)[nH]2)CC1` the AC50 was 12.6 µM [rising, partial curve]. For `CCCCOC(=O)C(C#N)c1nc2ccccc2nc1N1CCOCC1` (centres undefined), the AC50 was 2.51 µM [rising, full curve]. In the case of `CCn1c(=O)c(C)nn2c3ccccc3nc12`, the AC50 is reported as 15.8 µM [rising, single point]. For `CCOC(=O)CSc1nnc([C@@H](NC(=O)OC(C)(C)C)C(C)C)o1`, the AC50 was 3.16 µM [falling, single point]. In the case of `CN(C)C(=O)c1ccc(-c2nc(N3CCOCC3)c3ccccc3n2)cc1`, the AC50 is reported as 7.94 µM [rising, partial curve]. In the case of `O=S(=O)(NC1CCCCC1)c1ccc(Br)cc1`, the AC50 is reported as 0.00316 µM [falling, full curve, poor fit]. In the case of `CCOc1cc2c(cc1OCC)C(c1ccc(O)c(OC)c1)NCC2` (centres undefined), the AC50 is reported as 10 µM [rising, single point]. For `CCc1nc(N2CCCC(C)C2)c2oc3ccccc3c2n1` (centres undefined), the AC50 was 10 µM [rising, partial curve]. With `Oc1c(C(c2cccs2)N2CCOCC2)sc2ncnn12` (centres undefined) the AC50 was 10 µM [rising, partial curve]. For `Cc1cc(=O)oc2c(CN(C)Cc3ccccc3)c(O)ccc12`, the AC50 was 10 µM [rising, single point]. With `CCCCNc1cc(C)nc(NCc2ccccc2)n1` the AC50 was 0.0158 µM [falling, full curve, poor fit]. In the case of `CCC1(c2ccc(F)cc2)NC(=O)N(CC(=O)c2ccc[nH]2)C1=O` (centres undefined), the AC50 is reported as 1 µM [falling, single point]. In the case of `CCOc1ccc(C2c3c(oc4ccccc4c3=O)C(=O)N2c2ccc(C)cn2)cc1OC` (centres undefined), the AC50 is reported as 1.26 µM [rising, full curve]. In the case of `CCC1CCCCN1Cc1nc2c(c(=O)n(C)c(=O)n2C)n1Cc1ccccc1` (centres undefined), the AC50 is reported as 5.01 µM [rising, partial curve]. For `Cc1ccccc1-c1nc(Nc2ccncc2)c2ccccc2n1`, the AC50 was 3.16 µM [rising, full curve]. With `CCNc1ncc2ncc(=O)n(C)c2n1` the AC50 was 12.6 µM [rising, single point]. For `Nc1cc(Cl)c(NC2=NCCN2)c(Cl)c1`, the AC50 was 31.6 µM [rising, single point]. For `O=C(NCCCN1CCCCC1)c1ccc2c(c1)NC(=O)C(N1CCCCC1)S2` (centres undefined), the AC50 was 0.0794 µM [rising, single point]. For `CCOC(=O)c1c2c(n3ccccc13)C(=O)c1ccccc1C2=O`, the AC50 was 5.01 µM [rising, single point]. In the case of `CC(C)c1ccc(-c2noc(C3CCCN(C(=O)c4ccc(F)cc4F)C3)n2)cc1` (centres undefined), the AC50 is reported as 0.316 µM [falling, full curve, poor fit]. With `CCCCOC(=O)n1c(SCC(=O)N(C)C)nc2ccccc21` the AC50 was 12.6 µM [rising, single point]. For `CC(C)COC(=O)C1C(=O)CC(C)(O)C(C(=O)OCC(C)C)C1c1cccnc1` (centres undefined), the AC50 was 0.398 µM [falling, partial curve]. For `CC(C)N1CC(C(=O)Nc2nc3ccccc3s2)CC1=O` (centres undefined), the AC50 was 25.1 µM [rising, single point]. With `O=c1[nH]c(CSc2nnc(NCCCN3CCOCC3)s2)nc2cc(Cl)ccc12` the AC50 was 5.01 µM [falling, single point]. With `CCc1nnc(NC(=O)CN2CCC(O)(c3ccccc3OC)CC2)s1` the AC50 was 0.126 µM [falling, partial curve, poor fit]. In the case of `Cc1cc(S(=O)(=O)N2CCOCC2)ccc1F`, the AC50 is reported as 25.1 µM [falling, single point]. With `Cc1cc2c(c(=O)n1Cc1ccc3c(c1)OCO3)C(c1cccnc1)C(C#N)=C(N)O2` (centres undefined) the AC50 was 20 µM [rising, single point]. For `COc1cc(OC)cc(C(=O)N2CCC(n3c(C)nc4cc(F)ccc43)CC2)c1`, the AC50 was 15.8 µM [rising, partial curve]. In the case of `CCN1CCN(c2nc3c(c(=O)n(C)c(=O)n3C)n2Cc2cccc3ccccc23)CC1`, the AC50 is reported as 3.98 µM [rising, single point]. In the case of `CCCn1c(CN(C)Cc2ccccc2)nc2c1c(=O)n(C)c(=O)n2C`, the AC50 is reported as 12.6 µM [rising, partial curve]. In the case of `CCn1c2ccccc2c2nc3ccccc3nc21`, the AC50 is reported as 1.58 µM [rising, full curve]. In the case of `CC(OC(=O)CNC(=O)c1ccc2c(c1)OCO2)C(=O)NCCC1=CCCCC1` (centres undefined), the AC50 is reported as 25.1 µM [falling, single point]. With `Cc1cc(N2CCN(c3ccccc3)CC2)n2nnnc2n1` the AC50 was 25.1 µM [rising, single point]. In the case of `CCOC(=O)c1c(-c2ccccc2)nnn1-c1nc(OCC)nc(N2CCCCC2)n1`, the AC50 is reported as 0.00398 µM [falling, full curve, poor fit]. With `Cc1cc(S(=O)(=O)Nc2c(C(=O)O)[nH]c3ccccc23)ccc1F` the AC50 was 6.31 µM [falling, partial curve]. For `COc1ccc(C2C(C(C)=O)=C(C)N=c3s/c(=C\c4ccco4)c(=O)n32)c(OC)c1` (centres undefined), the AC50 was 12.6 µM [rising, partial curve]. In the case of `CN/C=C1\C(=O)C(C)(C)Oc2ccc3ccc(=O)oc3c21`, the AC50 is reported as 10 µM [rising, partial curve]. For `Cn1c(=O)c(-c2ccccc2)nc2cnc(N3CCOCC3)nc21`, the AC50 was 12.6 µM [rising, partial curve]. With `Cn1c(=O)c2nc(NCc3ccccc3)cnc2n(C)c1=O` the AC50 was 10 µM [rising, partial curve]. With `COC(=O)C1=C(N)Oc2cc(C)n(CC3CCCO3)c(=O)c2C1c1ccc(Cl)cc1` (centres undefined) the AC50 was 7.94 µM [falling, partial curve]. With `Cc1ccc(-c2nc(-c3cccnc3)no2)cc1` the AC50 was 12.6 µM [rising, single point]. In the case of `C=CCN1C(=O)C(O)(CC(=O)c2ccc(-n3cccc3)cc2)c2ccccc21` (centres undefined), the AC50 is reported as 12.6 µM [falling, partial curve, poor fit]. In the case of `O=C(Nc1ccccc1)N1CCSCC1`, the AC50 is reported as 7.94 µM [rising, partial curve]. With `CCn1c(SCC(=O)Nc2nc3ccc(OC)cc3s2)nc2c1c(=O)n(C)c(=O)n2C` the AC50 was 1.58 µM [rising, full curve]. For `COc1ccc(-c2cc(C(F)(F)F)nc(SCC(N)=O)n2)cc1`, the AC50 was 15.8 µM [rising, partial curve, poor fit]. With `CCCC(C(=O)NCc1ccco1)N(C(=O)CNS(=O)(=O)c1ccc(Cl)cc1)C1CCCC1` (centres undefined) the AC50 was 15.8 µM [falling, single point]. With `OC1CCN(c2ncnc3c2nnn3Cc2c(F)cccc2Cl)CC1` the AC50 was 5.01 µM [falling, single point]. For `CNc1nc(SCC(=O)OC)nc(N2CCOCC2)n1`, the AC50 was 5.01 µM [rising, partial curve]. With `CC(C)C12CN3CC(C(C)C)(CN(C1)C3c1ccccc1)C2O` (centres undefined) the AC50 was 0.398 µM [rising, partial curve]. In the case of `O=C(Nc1ccc(N2CCN(C(=O)c3ccco3)CC2)c(Cl)c1)c1cccs1`, the AC50 is reported as 31.6 µM [falling, single point].
